Source: article PMC4113361
No constants are given. Whether binding was seen depends on the method and setting. Some binding calls cover weakened binding; strength is not graded here.

Protein sequences, listed by entry. Tags and fused reporters are not part of them. Residues count along the entry.
UniProt P17787, residues 26-502: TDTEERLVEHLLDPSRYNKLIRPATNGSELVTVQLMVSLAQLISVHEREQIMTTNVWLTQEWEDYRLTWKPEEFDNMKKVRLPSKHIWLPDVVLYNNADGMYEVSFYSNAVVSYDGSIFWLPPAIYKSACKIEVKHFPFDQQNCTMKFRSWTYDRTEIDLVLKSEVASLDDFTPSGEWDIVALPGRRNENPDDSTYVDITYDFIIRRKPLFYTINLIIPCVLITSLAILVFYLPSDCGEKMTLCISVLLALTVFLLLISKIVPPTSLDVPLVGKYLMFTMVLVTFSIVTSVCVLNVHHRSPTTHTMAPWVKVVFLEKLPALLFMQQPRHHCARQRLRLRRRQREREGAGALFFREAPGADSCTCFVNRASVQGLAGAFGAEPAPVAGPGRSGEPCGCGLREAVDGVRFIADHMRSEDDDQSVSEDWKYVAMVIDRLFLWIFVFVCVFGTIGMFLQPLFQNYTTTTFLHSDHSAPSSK
UniProt Q05901, residues 22-458: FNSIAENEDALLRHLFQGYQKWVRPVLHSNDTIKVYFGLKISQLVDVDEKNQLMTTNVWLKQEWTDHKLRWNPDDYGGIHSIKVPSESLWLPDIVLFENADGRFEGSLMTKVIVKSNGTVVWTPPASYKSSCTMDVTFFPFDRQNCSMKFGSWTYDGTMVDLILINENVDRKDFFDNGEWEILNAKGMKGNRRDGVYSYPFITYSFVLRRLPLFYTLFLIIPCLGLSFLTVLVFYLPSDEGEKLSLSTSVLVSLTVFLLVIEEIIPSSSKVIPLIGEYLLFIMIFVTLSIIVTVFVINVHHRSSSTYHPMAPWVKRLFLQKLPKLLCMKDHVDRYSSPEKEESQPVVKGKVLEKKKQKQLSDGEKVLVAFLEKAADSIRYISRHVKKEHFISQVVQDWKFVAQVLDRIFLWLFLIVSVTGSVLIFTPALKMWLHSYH
UniProt Q15825, residues 26-494: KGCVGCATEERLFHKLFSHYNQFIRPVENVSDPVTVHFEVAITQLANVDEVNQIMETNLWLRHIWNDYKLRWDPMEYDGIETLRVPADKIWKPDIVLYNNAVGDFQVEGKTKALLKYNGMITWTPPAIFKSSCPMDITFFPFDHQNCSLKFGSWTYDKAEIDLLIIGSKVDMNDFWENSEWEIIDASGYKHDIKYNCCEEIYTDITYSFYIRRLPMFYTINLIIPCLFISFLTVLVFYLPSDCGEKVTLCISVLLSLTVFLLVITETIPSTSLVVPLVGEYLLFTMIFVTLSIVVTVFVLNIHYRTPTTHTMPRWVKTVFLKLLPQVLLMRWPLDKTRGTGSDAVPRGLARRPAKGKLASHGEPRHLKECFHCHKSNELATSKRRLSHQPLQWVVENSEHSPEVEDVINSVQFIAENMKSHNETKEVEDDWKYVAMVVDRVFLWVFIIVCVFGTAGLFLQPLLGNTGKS

How the values were obtained:
[1] = biological target: human nicotinic acetylcholine receptor β2 subunit (free subunit) (human) (UniProt P17787); assay: immunoisolation on antibody-coated microwells read by 3H epibatidine binding; Triton X-100 extracts of oocyte membranes (6 days after cRNA injection, α6:β2:β3 1:1:1) on mAb 295-coated wells (β2 held), 2 nM 3H epibatidine, PBS with 0.5% Triton X-100, overnight at 4°C; ACh binding sites as read-out of α6 with β2
[2] = biological target: human nicotinic acetylcholine receptor β2 subunit (free subunit) (human) (UniProt P17787); assay: sucrose gradient sedimentation; Triton X-100 extracts of 30-50 oocytes on 5-20% sucrose gradients, 16 h at 40,000 rpm, 4°C; fractions immunoisolated on mAb 295-coated wells (β2 held) and labelled with 2 nM 3H epibatidine; Torpedo AChR monomers and dimers as internal standards
[3] = biological target: human nicotinic acetylcholine receptor β3 subunit (free subunit) (human) (UniProt Q05901); assay: immunoisolation on antibody-coated microwells read by 3H epibatidine binding; detergent-solubilised AChRs from oocytes on mAb 210-coated wells (β3 held) compared with mAb 295-coated wells (β2 held); bound AChRs assayed by 3H epibatidine

binding [1] | binding [2] | binding [3] | Substance
binds | binds |  | human nicotinic acetylcholine receptor α6 subunit (free native subunit) (from UniProt Q15825 26-494)
 |  | binds | human nicotinic acetylcholine receptor β2 subunit (free subunit) (from UniProt P17787 26-502)
